Assay results taken from PMC8321558.
Numbering of substitutions follows the chain as printed. In names and notes the source's numbering stands. Results are given in words; binding and its absence hold for the method and conditions named. For part of these data: Binding calls can cover weak binding; strength is not graded here. For part of these data: Tags and fused reporters may be left off the sequences shown.

Tests used:
[1] = target: T1, NirD (purified, untagged) (Escherichia coli) (UniProt P0A9I8); assay: SEC; RelA^N-terminal and NirD alone or pre-mixed 1:1 (10 µM each); Superdex 200 10/300 GL; 50 mM Tris-HCl pH 8.0, 500 mM NaCl, 500 mM KCl, 2 mM β-mercaptoethanol, 2% glycerol; fractions analysed by SDS-PAGE; both purified
T1 sequence (chain, biotinylated with EZ-Link NHS-PEG4-Biotin for the biolayer interferometry only): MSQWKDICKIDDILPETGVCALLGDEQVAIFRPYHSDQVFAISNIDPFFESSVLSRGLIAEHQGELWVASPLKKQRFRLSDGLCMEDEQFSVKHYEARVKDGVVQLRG

[2] = target: T2, NirD^E50K (purified, untagged) (Escherichia coli) (UniProt P0A9I8); assay: condition: RelA^N-terminal at concentrations ranging from 0.1 to 30 µM; BLI; biotinylated NirD or NirD^E50K on streptavidin biosensors, RelA^N-terminal as analyte (up to 30 µM); BLItz, 25°C; 50 mM Tris-HCl pH 8.0, 500 mM NaCl, 500 mM KCl, 2 mM β-mercaptoethanol, 2% glycerol; KD from steady-state responses, one site model; both purified
T2 sequence (chain, biotinylated with EZ-Link NHS-PEG4-Biotin for the biolayer interferometry only): T1 sequence (chain, biotinylated with EZ-Link NHS-PEG4-Biotin for the biolayer interferometry only) with E50K

[3] = target: T25-RelA^N-terminal (Escherichia coli); assay: two-hybrid; bacterial two-hybrid (T18 and T25 domains of B. pertussis adenylate cyclase; pUT18C and pKT25) in cya-deficient E. coli BTH101, 30°C; X-Gal plates and β-galactosidase activity
[4] = target: T25-SpoT^N-terminal (Escherichia coli); assay: as above
[5] = target: T3, RelA^N-terminal (purified RelA catalytic domains) (Escherichia coli); assay: condition: 300 µM NirD^E50K in the syringe, 30 µM RelA^N-terminal in the cell; ITC; RelA^N-terminal (30 µM) in the cell, NirD or NirD^E50K (300 µM) in the syringe; 25°C; 50 mM Tris-HCl pH 8.0, 500 mM NaCl, 500 mM KCl, 2 mM β-mercaptoethanol, 2% glycerol; One Set of Sites model; both purified
T3 sequence (P0AG20 whole entry, looked up): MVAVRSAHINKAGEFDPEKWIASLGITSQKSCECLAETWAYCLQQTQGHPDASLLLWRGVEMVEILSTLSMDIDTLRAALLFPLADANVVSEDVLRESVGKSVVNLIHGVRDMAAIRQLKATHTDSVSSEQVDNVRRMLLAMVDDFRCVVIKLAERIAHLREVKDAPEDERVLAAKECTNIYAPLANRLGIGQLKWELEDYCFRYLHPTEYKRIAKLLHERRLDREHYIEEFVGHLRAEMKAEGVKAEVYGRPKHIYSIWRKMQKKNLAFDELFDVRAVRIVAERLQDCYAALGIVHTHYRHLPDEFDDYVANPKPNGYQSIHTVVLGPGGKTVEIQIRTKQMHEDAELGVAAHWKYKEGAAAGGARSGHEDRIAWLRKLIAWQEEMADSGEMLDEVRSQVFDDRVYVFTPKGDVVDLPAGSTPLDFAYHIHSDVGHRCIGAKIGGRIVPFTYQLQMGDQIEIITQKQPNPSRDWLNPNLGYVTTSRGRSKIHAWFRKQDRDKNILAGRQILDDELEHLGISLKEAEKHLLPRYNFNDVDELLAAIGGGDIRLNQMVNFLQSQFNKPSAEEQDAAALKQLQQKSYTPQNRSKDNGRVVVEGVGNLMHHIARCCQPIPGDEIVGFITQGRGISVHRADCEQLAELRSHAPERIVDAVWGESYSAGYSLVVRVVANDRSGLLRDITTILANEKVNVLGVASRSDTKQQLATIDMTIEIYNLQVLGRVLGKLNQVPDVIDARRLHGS

RelA^N-terminal (purified RelA catalytic domains) (Escherichia coli) (domain or fragment)
binding [1]: binds | binding [2]: no binding

B1: T18-NirD (protein, UniProt P0A9I8 1-108)
chain: T1 sequence (chain, biotinylated with EZ-Link NHS-PEG4-Biotin for the biolayer interferometry only)
binding [3]: binds | binding [4]: no binding

B2: T18-NirD^E50K (protein, UniProt P0A9I8 1-108)
chain: T1 sequence (chain, biotinylated with EZ-Link NHS-PEG4-Biotin for the biolayer interferometry only) with E50K
binding [3]: no binding

B3: NirD^E50K (purified, untagged) (protein, UniProt P0A9I8 1-108)
chain: T1 sequence (chain, biotinylated with EZ-Link NHS-PEG4-Biotin for the biolayer interferometry only) with E50K
modifications: biotinylated with EZ-Link NHS-PEG4-Biotin for the biolayer interferometry only
binding [5]: no binding
